No constants are given. Whether binding was seen depends on the method and setting. Binding seen in cells or lysates may run through a third protein. Some entries that bind do so weakly or less than the wild type.

Protein sequences, listed by entry. Tags and fused reporters are not part of them. Lines headed by an entry give the natural chain unless they say otherwise; changes in a name come on top. Chains listed by the source or under a name are the forms on record and can include a tag or linker.
UniProt O14977: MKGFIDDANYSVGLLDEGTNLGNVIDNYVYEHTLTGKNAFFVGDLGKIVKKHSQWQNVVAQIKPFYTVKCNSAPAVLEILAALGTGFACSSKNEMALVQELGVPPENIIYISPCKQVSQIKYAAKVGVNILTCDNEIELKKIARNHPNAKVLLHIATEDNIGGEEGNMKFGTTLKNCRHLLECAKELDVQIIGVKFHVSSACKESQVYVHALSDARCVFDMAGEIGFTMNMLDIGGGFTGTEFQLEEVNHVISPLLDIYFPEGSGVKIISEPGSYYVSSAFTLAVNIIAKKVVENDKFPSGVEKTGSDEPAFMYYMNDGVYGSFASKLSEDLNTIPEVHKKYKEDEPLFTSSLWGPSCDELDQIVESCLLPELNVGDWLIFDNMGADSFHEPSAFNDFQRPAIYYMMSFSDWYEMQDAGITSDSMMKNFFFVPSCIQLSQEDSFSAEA
FLAG-tagged edited AZIN1 (Ser367Gly) (O14977, form named): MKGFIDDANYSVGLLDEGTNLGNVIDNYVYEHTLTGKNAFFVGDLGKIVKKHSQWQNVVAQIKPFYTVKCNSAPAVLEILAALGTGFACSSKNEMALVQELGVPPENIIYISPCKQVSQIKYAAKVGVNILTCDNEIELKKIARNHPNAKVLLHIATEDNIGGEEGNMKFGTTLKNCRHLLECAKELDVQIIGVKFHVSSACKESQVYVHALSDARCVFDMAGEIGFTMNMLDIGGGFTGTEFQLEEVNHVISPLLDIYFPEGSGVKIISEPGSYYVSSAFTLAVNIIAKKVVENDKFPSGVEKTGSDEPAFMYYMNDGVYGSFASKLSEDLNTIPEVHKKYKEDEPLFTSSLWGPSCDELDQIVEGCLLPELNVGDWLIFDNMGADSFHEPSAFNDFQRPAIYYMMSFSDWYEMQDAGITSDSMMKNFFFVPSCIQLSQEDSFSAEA
UniProt P35579: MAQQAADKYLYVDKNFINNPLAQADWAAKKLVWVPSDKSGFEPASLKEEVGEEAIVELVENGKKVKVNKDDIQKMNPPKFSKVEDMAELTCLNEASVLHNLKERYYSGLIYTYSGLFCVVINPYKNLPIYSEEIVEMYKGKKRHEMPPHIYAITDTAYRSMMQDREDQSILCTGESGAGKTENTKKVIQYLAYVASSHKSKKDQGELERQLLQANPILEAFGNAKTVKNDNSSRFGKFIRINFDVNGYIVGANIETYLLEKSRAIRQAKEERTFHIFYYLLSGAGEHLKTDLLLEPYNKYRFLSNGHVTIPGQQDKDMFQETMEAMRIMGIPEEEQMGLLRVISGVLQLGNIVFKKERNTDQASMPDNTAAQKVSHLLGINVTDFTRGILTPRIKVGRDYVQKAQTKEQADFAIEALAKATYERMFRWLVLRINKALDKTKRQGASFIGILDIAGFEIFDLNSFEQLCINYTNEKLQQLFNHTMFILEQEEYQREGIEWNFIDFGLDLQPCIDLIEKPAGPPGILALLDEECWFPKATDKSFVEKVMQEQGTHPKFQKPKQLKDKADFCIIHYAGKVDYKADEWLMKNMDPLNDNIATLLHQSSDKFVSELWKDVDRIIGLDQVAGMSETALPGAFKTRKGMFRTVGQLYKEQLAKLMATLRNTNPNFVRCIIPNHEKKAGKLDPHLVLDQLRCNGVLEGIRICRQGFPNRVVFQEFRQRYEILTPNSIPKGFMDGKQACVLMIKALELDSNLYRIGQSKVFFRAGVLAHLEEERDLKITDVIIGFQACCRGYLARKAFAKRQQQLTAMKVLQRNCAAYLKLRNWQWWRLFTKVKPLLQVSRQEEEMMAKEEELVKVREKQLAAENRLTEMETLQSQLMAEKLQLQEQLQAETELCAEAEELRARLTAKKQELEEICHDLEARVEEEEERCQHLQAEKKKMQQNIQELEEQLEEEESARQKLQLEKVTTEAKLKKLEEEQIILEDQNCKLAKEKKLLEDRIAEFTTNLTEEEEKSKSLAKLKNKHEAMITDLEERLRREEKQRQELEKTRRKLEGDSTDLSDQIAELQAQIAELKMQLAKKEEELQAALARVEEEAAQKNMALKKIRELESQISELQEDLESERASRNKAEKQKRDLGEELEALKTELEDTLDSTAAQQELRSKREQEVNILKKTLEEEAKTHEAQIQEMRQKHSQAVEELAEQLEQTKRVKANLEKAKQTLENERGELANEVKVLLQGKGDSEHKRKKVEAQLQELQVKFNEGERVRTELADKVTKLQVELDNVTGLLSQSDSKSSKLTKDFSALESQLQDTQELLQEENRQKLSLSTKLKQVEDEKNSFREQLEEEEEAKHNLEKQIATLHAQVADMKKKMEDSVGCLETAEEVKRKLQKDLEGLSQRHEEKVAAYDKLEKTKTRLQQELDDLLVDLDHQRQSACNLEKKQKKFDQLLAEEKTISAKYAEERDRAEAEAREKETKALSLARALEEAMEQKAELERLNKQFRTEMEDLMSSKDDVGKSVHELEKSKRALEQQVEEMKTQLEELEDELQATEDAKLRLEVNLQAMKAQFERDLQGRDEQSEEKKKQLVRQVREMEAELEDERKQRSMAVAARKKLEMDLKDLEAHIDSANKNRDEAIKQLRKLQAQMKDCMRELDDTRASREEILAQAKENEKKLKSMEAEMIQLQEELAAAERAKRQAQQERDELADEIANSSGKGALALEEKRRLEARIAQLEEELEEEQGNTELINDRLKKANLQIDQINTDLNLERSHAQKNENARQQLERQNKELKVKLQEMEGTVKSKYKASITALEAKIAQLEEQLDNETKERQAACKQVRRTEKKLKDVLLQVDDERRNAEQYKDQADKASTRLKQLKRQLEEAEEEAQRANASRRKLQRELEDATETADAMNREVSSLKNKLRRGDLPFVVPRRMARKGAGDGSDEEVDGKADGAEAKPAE

The target of assay [1] is FLAG-tagged wild-type AZIN1 (Antizyme Inhibitor 1) (human) (UniProt O14977). The assay is described as follows: co-IP; HEK293 cells transfected with FLAG-wtAZIN1 or FLAG-edAZIN1 (24 h); immunoprecipitated with anti-FLAG antibody or IgG, protein G-agarose, western blot for myosin-9, ACTG1, ACTA2 (ACTG1 and ACTA2 in the nuclear fractions).
Assay [2] has as its target FLAG-tagged edited AZIN1 (Ser367Gly) (human) (UniProt O14977). Described as above.

For the substance myosin-9 (from UniProt P35579 1-1960), the binding result in assay [1] was “no binding”; in assay [2], “binds”.

For the origin of these results see paper PMC9636422.
